Experimental data: the supplement of paper PMC12819154, “High-throughput peptide-centric local stability assay extends protein–ligand identification to membrane proteins, tissues and bacteria” (Nature Structural & Molecular Biology, 2025)
The other results are listed elsewhere or left out. Most values lie at the level of the controls, where differences are scatter.

Amino acid sequences for entries named in this document (tags omitted). A change or cut given only in a name is not applied to a line headed by its entry.
UniProt Q6P6J4: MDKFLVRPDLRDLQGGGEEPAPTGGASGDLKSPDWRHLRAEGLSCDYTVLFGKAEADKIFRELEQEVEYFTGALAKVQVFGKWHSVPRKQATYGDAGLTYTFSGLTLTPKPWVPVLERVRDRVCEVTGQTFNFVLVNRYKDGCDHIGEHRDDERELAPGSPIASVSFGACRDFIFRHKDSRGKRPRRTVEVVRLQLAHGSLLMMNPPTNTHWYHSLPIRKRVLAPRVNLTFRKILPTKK
UniProt Q6P1H1: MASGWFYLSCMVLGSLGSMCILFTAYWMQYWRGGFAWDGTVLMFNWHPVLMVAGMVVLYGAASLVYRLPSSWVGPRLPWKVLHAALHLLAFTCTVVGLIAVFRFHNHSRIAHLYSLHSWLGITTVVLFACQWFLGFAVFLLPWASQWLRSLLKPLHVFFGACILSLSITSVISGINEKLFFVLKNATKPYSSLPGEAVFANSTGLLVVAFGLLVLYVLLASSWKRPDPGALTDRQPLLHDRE
UniProt Q6PEM6: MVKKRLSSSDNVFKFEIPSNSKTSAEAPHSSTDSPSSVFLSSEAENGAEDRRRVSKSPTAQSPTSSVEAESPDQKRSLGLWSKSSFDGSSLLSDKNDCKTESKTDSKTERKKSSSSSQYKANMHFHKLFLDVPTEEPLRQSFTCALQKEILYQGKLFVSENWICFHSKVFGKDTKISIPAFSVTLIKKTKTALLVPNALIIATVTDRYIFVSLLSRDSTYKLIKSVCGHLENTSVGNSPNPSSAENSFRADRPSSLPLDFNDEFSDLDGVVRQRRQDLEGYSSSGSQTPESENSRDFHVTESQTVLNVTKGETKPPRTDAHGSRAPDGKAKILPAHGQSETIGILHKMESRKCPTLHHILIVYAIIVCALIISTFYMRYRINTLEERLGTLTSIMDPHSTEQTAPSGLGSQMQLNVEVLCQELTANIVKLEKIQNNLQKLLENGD
UniProt Q6PD31: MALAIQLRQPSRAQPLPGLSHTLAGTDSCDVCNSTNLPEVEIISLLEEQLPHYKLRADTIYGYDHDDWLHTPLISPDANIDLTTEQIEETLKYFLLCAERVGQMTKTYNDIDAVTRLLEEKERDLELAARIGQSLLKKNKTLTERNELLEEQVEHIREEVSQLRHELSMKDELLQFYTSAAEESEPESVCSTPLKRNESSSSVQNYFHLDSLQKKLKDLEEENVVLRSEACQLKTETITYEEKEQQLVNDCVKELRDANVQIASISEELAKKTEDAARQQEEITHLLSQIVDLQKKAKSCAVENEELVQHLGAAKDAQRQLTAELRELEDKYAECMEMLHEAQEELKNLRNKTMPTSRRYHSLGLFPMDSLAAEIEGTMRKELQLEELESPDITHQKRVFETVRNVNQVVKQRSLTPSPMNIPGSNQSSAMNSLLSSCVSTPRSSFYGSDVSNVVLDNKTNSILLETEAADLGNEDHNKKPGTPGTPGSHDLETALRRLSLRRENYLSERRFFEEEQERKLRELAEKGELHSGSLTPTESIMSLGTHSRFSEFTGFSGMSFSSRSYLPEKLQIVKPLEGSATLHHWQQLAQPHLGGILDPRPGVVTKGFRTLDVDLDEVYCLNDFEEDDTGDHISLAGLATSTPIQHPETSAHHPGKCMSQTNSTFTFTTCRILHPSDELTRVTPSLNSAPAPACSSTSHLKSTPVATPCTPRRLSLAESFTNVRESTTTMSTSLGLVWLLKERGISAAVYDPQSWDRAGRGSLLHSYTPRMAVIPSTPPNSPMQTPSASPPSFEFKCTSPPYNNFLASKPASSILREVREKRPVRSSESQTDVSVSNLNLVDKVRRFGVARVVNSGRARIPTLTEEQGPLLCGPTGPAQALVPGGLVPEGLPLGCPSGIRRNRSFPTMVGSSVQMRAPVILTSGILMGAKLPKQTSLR
UniProt Q6PAR5: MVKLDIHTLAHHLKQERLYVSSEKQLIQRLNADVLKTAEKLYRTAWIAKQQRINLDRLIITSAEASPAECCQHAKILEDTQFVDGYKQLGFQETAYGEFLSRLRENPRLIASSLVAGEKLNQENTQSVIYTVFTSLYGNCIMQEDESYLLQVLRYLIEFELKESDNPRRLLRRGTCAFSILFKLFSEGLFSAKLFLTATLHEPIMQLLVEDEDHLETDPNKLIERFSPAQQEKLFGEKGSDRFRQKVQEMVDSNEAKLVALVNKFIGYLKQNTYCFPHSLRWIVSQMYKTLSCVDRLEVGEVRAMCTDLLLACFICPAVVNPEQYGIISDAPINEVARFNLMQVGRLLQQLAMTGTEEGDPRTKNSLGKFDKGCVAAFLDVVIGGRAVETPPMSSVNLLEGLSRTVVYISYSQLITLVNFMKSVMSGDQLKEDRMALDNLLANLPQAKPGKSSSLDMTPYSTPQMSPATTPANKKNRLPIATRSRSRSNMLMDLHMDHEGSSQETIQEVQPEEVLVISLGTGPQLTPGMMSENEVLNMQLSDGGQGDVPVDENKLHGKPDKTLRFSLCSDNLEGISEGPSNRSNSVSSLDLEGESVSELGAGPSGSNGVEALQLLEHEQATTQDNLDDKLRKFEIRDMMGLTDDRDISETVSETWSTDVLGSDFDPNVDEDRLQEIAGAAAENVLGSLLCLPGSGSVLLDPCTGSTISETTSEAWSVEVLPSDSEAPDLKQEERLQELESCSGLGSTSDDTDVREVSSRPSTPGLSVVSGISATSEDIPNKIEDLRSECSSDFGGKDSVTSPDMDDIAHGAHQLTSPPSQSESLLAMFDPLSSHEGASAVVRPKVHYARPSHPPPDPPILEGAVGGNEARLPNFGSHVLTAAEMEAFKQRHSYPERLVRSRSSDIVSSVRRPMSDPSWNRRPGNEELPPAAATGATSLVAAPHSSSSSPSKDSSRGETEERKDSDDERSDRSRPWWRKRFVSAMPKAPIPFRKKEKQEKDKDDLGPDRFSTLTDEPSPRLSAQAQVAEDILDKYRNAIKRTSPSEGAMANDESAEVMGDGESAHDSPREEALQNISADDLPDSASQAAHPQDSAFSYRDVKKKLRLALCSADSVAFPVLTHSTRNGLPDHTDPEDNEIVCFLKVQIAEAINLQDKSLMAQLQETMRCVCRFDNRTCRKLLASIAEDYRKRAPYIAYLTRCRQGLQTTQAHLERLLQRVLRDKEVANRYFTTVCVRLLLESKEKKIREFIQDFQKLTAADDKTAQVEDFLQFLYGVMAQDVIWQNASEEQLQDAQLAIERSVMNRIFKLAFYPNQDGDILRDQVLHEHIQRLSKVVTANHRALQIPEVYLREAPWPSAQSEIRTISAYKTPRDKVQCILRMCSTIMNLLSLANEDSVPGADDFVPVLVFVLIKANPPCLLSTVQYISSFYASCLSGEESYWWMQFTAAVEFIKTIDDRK
UniProt Q6NWW9: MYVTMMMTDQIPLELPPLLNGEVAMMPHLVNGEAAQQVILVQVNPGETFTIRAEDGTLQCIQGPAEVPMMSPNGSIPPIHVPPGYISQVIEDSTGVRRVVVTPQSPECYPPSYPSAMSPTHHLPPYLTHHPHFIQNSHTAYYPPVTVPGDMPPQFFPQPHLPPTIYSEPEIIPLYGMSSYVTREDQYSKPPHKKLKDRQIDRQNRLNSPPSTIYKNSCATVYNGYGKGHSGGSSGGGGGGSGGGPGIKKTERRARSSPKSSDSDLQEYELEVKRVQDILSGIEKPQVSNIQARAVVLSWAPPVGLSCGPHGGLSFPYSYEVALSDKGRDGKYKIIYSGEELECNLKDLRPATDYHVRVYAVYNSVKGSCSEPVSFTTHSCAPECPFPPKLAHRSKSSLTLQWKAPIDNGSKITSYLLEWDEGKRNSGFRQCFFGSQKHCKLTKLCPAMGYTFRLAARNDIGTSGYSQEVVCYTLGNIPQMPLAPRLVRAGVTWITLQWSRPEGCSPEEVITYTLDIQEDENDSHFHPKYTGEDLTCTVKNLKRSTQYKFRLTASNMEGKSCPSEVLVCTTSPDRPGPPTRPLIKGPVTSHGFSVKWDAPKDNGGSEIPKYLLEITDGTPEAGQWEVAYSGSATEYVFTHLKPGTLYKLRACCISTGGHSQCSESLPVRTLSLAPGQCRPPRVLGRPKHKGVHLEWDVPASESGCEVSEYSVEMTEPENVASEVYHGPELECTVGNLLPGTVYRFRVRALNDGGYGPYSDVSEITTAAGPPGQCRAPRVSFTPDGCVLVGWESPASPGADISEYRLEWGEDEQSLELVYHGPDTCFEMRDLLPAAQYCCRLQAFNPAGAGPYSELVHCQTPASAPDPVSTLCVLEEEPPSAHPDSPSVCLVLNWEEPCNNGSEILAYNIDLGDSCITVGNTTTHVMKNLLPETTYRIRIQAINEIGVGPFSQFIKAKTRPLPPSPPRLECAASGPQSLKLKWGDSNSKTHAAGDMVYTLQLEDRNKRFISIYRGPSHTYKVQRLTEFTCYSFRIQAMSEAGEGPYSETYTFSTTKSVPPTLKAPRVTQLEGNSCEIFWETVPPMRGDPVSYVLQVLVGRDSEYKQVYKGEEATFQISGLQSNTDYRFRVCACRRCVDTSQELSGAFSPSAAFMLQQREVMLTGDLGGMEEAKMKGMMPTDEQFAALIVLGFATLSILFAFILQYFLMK
UniProt Q6P3B2: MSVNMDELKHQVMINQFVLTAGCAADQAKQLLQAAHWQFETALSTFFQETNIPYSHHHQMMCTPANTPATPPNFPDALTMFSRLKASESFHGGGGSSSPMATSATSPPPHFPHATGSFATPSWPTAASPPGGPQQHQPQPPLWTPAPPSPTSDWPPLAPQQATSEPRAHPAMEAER
UniProt Q6PDI6: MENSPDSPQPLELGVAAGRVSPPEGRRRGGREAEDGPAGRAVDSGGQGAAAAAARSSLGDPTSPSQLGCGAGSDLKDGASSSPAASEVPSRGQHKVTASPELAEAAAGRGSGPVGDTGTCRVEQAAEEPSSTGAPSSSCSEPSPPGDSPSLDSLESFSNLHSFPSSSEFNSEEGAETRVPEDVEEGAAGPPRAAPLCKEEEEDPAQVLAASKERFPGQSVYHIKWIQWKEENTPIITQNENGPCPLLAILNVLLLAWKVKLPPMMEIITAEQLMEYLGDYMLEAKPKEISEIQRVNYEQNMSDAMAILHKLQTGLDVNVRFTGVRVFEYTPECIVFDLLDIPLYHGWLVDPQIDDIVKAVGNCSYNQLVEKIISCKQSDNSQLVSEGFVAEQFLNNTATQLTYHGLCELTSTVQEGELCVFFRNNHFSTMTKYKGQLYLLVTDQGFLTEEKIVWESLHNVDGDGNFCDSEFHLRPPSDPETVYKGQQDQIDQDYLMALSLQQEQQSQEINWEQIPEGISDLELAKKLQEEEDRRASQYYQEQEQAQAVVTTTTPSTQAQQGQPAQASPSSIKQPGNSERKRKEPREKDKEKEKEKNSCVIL
UniProt Q6P5E6: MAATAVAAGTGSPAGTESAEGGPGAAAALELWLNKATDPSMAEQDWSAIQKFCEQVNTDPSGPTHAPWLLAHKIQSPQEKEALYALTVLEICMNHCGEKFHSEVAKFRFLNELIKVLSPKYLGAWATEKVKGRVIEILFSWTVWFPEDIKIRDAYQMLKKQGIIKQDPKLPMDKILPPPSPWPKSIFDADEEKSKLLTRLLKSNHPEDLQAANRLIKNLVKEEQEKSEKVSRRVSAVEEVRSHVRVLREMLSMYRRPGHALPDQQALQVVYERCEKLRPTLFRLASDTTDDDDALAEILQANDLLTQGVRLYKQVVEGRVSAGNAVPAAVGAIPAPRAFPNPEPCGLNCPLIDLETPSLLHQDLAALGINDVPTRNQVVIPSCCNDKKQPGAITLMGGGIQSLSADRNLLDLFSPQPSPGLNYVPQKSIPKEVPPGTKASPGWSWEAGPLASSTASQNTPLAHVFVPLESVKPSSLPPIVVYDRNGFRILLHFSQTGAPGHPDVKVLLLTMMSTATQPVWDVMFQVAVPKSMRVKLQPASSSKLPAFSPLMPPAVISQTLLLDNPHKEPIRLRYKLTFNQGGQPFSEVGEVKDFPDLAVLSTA

Each target was assayed with CN[C@@H]1C[C@H]2O[C@@](C)([C@@H]1OC)n1c3ccccc3c3c4c(c5c6ccccc6n2c5c31)C(=O)NC4 [staurosporine] (assay: log2 fold change of tryptic peptide abundance, ligand vs vehicle (limited proteolysis) (log2 ratio); higher = more trypsin-susceptible (destabilized)). Conditions: ligand concentration: 20 uM; sample: mouse liver crude lysate; replicate design: treated separately.

| Target | log2 fold change |
| --- | --- |
| UniProt Q6P6J4 (peptide sequence: YKDGCDHIGEHR, peptide start residue: 139) | -0.178 |
| UniProt Q6P1H1 (peptide sequence: RPDPGALTDR, peptide start residue: 225) | 0.0189 |
| UniProt Q6PEM6 (peptide sequence: ILPAHGQSETIGILHK, peptide start residue: 332) | 0.262 |
| UniProt Q6PD31 (peptide sequence: KELQLEELESPDITHQKR, peptide start residue: 381) | -0.35 |
| UniProt Q6PAR5 (peptide sequence: WIVSQMYK, peptide start residue: 282) | 0.459 |
| UniProt Q6NWW9 (peptide sequence: VYAVYNSVK, peptide start residue: 358) | 0.408 |
| UniProt Q6P3B2 (peptide sequence: AHPAMEAER, peptide start residue: 168) | 0.0176 |
| UniProt Q6A058 (peptide sequence: AAPGAHTGAIPK, peptide start residue: 410) | 0.0254 |
| UniProt Q6PDI6 (peptide sequence: GSGPVGDTGTCR, peptide start residue: 110) | 0.317 |
| UniProt Q6P5E6 (peptide sequence: FLNELIK, peptide start residue: 90) | -0.125 |
| UniProt Q6DFV3 (peptide sequence: GSNLTVAPVVNSDNRR, peptide start residue: 550) | -0.294 |
